US20050054012, “Methods of detecting and treating facioscapulohumeral muscular dystrophy” (published 2005)

Chains of the proteins cited; added tags and fusions are not shown. Chains listed by the source or under a name are the forms on record and can include a tag or linker.
D4Z4 recognition complex (YY1, HMGB2, nucleolin) (Homo sapiens), one chain, as listed by the source, chain 3 of 3: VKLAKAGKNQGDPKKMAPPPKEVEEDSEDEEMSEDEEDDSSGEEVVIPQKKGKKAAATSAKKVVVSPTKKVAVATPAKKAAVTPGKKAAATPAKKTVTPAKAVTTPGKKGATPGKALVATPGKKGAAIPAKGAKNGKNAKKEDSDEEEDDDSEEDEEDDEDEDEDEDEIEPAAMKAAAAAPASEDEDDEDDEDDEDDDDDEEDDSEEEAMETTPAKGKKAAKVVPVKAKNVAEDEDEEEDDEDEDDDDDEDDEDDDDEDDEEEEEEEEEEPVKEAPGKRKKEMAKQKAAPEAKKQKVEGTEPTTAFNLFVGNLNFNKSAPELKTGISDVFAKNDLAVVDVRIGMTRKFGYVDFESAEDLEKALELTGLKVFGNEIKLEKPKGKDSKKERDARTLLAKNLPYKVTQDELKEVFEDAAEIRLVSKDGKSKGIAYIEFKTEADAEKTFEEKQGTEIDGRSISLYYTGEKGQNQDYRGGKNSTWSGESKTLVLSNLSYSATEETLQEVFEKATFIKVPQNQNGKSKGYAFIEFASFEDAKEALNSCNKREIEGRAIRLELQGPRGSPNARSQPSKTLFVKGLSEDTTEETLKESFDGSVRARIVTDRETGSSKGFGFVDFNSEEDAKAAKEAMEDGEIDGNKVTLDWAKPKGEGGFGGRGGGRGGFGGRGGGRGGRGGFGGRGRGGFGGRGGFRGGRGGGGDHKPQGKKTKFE
D4Z4 recognition complex (YY1, HMGB2, nucleolin) (Homo sapiens), one chain, as listed by the source, chain 1 of 3: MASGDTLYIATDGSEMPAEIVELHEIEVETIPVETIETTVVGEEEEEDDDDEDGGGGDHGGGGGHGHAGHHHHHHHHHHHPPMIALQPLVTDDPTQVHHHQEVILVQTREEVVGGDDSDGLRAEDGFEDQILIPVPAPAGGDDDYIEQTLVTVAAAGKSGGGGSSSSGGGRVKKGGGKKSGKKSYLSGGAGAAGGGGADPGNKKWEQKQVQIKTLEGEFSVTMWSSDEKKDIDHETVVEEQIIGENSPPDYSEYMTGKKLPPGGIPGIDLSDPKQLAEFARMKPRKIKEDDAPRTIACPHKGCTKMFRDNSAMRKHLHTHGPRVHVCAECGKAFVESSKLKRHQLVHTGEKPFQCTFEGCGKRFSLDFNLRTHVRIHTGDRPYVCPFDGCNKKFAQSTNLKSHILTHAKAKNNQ
D4Z4 recognition complex (YY1, HMGB2, nucleolin) (Homo sapiens), one chain, as listed by the source, chain 2 of 3: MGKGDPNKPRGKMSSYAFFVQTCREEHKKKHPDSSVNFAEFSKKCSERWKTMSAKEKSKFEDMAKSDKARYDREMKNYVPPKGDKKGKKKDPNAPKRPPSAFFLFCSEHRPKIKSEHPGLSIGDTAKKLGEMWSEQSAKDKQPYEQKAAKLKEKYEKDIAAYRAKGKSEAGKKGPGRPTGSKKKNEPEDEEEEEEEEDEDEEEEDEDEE

Legend:
[1] = tested on: D4Z4 recognition complex (YY1, HMGB2, nucleolin) (Homo sapiens); experiment: footprint; conditions: DNase I; HeLa nuclear extract, probe D4Z4-243; protein in an extract; protein details: HeLa nuclear extract or affinity-purified fraction; label: 32P end
[2] = tested on: D4Z4 recognition complex (YY1, HMGB2, nucleolin) (Homo sapiens); experiment: EMSA; conditions: HeLa nuclear extract, protein in an extract, protein details: HeLa nuclear extract or affinity-purified fraction, label: 32P end

CCATTCATGAAGGGGTGGAGCCTGCCT (double strand) [DBE 27 bp within D4Z4-243]
binding result [1]: binds

CTCACCGCCATTCATGAAGGGGTGGAGCCTGCCTG (double strand) [DBE WT probe]
binding result ([2]; anti-nucleolin and anti-HMGB2 supershift, anti-YY1 disrupts the shift): binds

CTCACCGCCGCCCATGAAGGGGTGGAGCCTGCCTG (double strand) [DBE MUT probe]
binding result ([2]; variant of DBE WT probe): no binding

Results from cells or extracts need not show a direct contact. For part of these data: A negative result means that nothing was seen under these conditions.
